{"source": "paper doi:10.1101/2022.01.11.475884", "about": "(bioRxiv, 2022)", "biological_target": "T1, Flag-TAK1 (UniProt O43318)", "T1 sequence": "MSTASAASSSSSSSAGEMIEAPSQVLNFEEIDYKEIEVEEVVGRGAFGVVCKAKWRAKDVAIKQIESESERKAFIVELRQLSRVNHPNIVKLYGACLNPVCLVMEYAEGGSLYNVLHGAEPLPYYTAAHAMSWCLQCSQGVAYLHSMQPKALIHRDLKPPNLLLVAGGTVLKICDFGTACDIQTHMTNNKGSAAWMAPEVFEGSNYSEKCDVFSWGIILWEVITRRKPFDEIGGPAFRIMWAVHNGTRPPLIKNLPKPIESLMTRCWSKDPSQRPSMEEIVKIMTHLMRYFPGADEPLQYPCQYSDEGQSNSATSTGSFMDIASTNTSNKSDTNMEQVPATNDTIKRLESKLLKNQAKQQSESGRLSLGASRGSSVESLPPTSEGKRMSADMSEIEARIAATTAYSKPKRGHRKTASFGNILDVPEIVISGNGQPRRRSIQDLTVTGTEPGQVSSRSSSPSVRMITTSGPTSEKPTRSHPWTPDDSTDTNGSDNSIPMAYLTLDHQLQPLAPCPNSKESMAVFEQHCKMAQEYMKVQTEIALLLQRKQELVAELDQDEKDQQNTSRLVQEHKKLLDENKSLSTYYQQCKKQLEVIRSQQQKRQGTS", "experiment": "affinity purification with mass spectrometry", "note": "Results are given in words; binding and its absence hold for the method and conditions named. Binding seen in cells or lysates may run through a third protein. Here binding means that the protein was enriched with, or labelled near, the bait; the list need not be complete. Sequences can lack the tags named with a protein."}
{"substance": "Mfn2 (endogenous, COS-7)", "values": [{"measurement": "binding", "result": "binds"}]}
